In publication PMC3382597:
These are yes or no findings as the source states them, for the method shown. Some binding calls cover weakened binding; strength is not graded here.

Target: peroxiredoxin 3 (PRX3), endogenous in HM malignant mesothelioma cells (human (endogenous in HM cells)) (UniProt P30048)
Assay: non-reducing denaturing SDS-PAGE with immunoblot; HM cells treated with increasing thiostrepton (TS) for 18 hr; extracts prepared without reducing agents, 20 µg protein/lane, denaturing but not reducing gel that preserves disulfide bonds; PRX3 monomers against disulfide-bonded dimers by immunoblot

binding: binds
B1: peroxiredoxin 3 (PRX3), endogenous in HM malignant mesothelioma cells (protein, UniProt P30048 62-256)
chain: APAVTQHAPYFKGTAVVNGEFKDLSLDDFKGKYLVLFFYPLDFTFVCPTEIVAFSDKANEFHDVNCEVVAVSVDSHFSHLAWINTPRKNGGLGHMNIALLSDLTKQISRDYGVLLEGSGLALRGLFIIDPNGVIKHLSVNDLPVGRSVEETLRLVKAFQYVETHGEVCPANWTPDSPTIKPSPAASKEYFQKVNQ
